Measured values taken from PubChem BioAssay AID1671190 (National Center for Advancing Translational Sciences (NCATS), 2021).
“And” between values parts separate entries of the source, which are not always exact repeats. Identical values can stand only once. In all, about 580,000 compounds went through this assay and about 6,100 (1.1%) were called active. This list was built around the results that the source calls inconclusive (neither active nor inactive); the mix of calls is not that of the screen. Calls follow the shape of the dose curve; as a rule, active = well fitted inhibition curve with a large enough effect; inconclusive = small, poorly fitted or top-dose-only effect, or another doubt; inactive = no such curve, though single readings can be large or run the other way. Potencies beside an inconclusive call are fits to weak or partial responses and may not hold up.

Protein sequences, listed by entry. Tags and fused reporters are not part of them.
UniProt P18054, whole entry, looked up: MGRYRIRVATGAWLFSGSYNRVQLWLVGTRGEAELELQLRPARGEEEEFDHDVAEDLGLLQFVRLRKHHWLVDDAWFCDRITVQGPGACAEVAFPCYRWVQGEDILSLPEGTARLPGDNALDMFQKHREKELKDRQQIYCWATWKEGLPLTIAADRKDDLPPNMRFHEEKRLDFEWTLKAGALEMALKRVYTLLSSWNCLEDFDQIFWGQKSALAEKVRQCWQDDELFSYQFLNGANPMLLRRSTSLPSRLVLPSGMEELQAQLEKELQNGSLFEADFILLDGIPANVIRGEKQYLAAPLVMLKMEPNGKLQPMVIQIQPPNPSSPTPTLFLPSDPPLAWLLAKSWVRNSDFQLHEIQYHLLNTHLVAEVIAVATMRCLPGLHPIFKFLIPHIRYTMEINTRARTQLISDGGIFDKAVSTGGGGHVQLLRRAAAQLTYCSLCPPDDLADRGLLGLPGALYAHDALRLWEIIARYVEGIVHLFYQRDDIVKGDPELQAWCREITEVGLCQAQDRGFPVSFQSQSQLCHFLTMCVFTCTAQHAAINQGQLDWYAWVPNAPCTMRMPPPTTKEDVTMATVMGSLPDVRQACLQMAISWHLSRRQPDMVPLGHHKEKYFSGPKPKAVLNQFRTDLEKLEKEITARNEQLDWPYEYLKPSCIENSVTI

Target: Polyunsaturated fatty acid lipoxygenase ALOX12 (Homo sapiens) (UniProt P18054)
Experiment: Primary qHTS assay for inhibitors of human arachidonate 12S-lipoxygenase (ALOX12): Round 2
Settings: purified 12hLO, xylenol orange hydroperoxide absorbance; activity change, negative = inhibition: at 108 µM (top of the series)
Summary of the method: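 Purified human 12hLO at 150 nM in 25 mM Hepes, 0.01% Triton X-100, pH 7.0, preincubated 15 min at room temperature with compound. Reaction started with 40 uM arachidonic acid, 30 min at room temperature. Hydroperoxide measured by Fe-xylenol orange, 573/405 nm absorbance ratio.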
% is scaled to controls: 0 for no effect and ±100 for the full control effect; potency is read from the fitted curve at half-maximal effect.

Row | SMILES | activity change, negative = inhibition | Potency
1 | COC(=O)C1=C(c2ccc(OCc3ccccc3)cc2)C[C@@H]2CC[C@H]1N2C(=O)NCc1cccc(C(F)(F)F)c1 | inactive: 0.175% | 
2 | NC(N)=N/N=C/c1cn(-c2ccccc2)nc1-c1cccs1 |  | inconclusive: 44.7 µM [inhibitor, partial curve, poor fit]
3 | COc1cc(C=C2C(=O)NC(=O)NC2=O)ccc1O |  | inconclusive: 39.8 µM [inhibitor, partial curve, poor fit]
4 | O=C(O)C(Cc1cnc[nH]1)NS(=O)(=O)c1ccc(Br)cc1 (stereo not drawn) |  | inconclusive: 3.16 µM [inhibitor, full curve, poor fit]
5 | O=C1NC(=O)N(Cc2ccco2)C(=O)/C1=C\c1ccc(-c2ccc(F)cc2)o1 |  | inconclusive: 17.8 µM [inhibitor, partial curve, poor fit]
6 | CN[C@@H]1C[C@H](c2ccc(Cl)c(Cl)c2)c2ccccc21 |  | inconclusive: 112 µM [inhibitor, single point]
7 | COc1cc(C(=O)N2Cc3ccccc3-n3nncc3C2)cc(OC)c1OC |  | inconclusive: 31.6 µM [inhibitor, single point]
8 | COCc1cn(C[C@H]2C[C@@H]3CCN2C[C@@H]3C(=O)NCc2ccco2)nn1 | inactive: 2.9% [at 176 µM] | 
9 | OC1(c2ccccc2)CCNC2CCCCC21 (stereo not drawn) | inactive: -25.5% | 
10 | CCCCn1c(O)c(C(C)=Nc2ccc(OCC)cc2)c(=O)[nH]c1=O |  | inconclusive: 44.7 µM [inhibitor, partial curve, poor fit]
11 | CCN1C(=O)C(=Cc2ccc(C)s2)C(=O)N(CC)C1=S |  | inconclusive: 39.8 µM [inhibitor, partial curve, poor fit]
12 | C=CCN1CCN(C(=O)Cc2ccc(Br)cc2)CC1 |  | inconclusive: 31.6 µM [inhibitor, partial curve, poor fit]
13 | COC(=O)C1=C(c2ccc(OC(F)(F)F)cc2)C[C@@H]2CC[C@H]1N2C(=O)NC1CC1 | inactive: 17.9% | 
14 | Cc1c(C(=O)c2cccc3ccccc23)c2cccc3c2n1[C@@H](CN1CCOCC1)CO3 |  | inconclusive: 39.8 µM [inhibitor, partial curve, poor fit]
15 | CCOC(=O)c1c(C)n(Cc2ccccc2)c2ccc(O)cc12 |  | inconclusive: 44.7 µM [inhibitor, partial curve, poor fit] and inconclusive: 31.6 µM [inhibitor, full curve, poor fit]
16 | C=CCn1c(O)c(C=NCCCOc2ccc(CC)cc2)c(=O)[nH]c1=S | inactive: 21.6% | 
17 | COc1ccccc1OCCCn1cc(C(=O)C(F)(F)F)c2cc(Br)ccc21 | inactive: -16.7% | 
18 | O=C1NC(=O)C(=Cc2ccc(Cl)cc2)C(=O)N1 |  | active: 39.8 µM
19 | O=C(c1ccc2c(c1)OCO2)N1[C@H]2CC[C@@H]1c1cnc(-c3ccc(F)cc3)nc1C2 | inactive: -21% | 
20 | COc1cc2c(cc1Oc1ccccc1)NC(=O)C21CCN(Cc2cccc(O)c2)CC1 |  | inconclusive: 56.2 µM [inhibitor, partial curve, poor fit]
21 | N#CC(C#N)=NNc1ccc(-n2ccc(C(F)(F)F)n2)cc1 |  | active: 28.2 µM
22 | O=C1NC(=O)N(c2cccc(Cl)c2)C(=O)/C1=C\c1ccc(Sc2nc3ccccc3[nH]2)o1 |  | active: 10 µM

Row | SMILES | activity change, negative = inhibition | Potency
23 | O=c1cc(CN2CC=C(c3ccccc3)CC2)c2c(ccc3ccccc32)o1 |  | inconclusive: 44.7 µM [inhibitor, partial curve]
24 | Cc1ccc(C(=O)c2cc(Br)ccc2N)cc1 |  | inconclusive: 14.1 µM [inhibitor, partial curve, poor fit]
25 | CCCS(=O)(=O)Nc1ccc(=O)n2c1[C@@H]1C[C@@H](CN(S(=O)(=O)c3ccc(OC)cc3)C1)C2 |  | inconclusive: 25.1 µM [inhibitor, full curve, poor fit]
26 | CC(Nc1ccc([N+](=O)[O-])c2cnccc12)c1ccc(F)cc1 (stereo not drawn) | inactive: 5.77% | 
27 | O=C(Cc1ccc([N+](=O)[O-])cc1)N1CCN(Cc2ccc3c(c2)OCO3)CC1 |  | inconclusive: 100 µM [inhibitor, single point]
28 | N#C/C(=C\c1ccc(O)c(O)c1)C(N)=S |  | inconclusive: 7.08 µM [inhibitor, full curve, poor fit]
29 | C[N+]1(C)C2CCC1CC(OC(=O)c1c[nH]c3ccccc13)C2 (stereo not drawn) |  | active: 44.7 µM
30 | O=C(Cc1c[nH]c2ccccc12)N1CCN(CC(=O)N2CCCC2)CC1 | inactive: 16% | 
31 | COc1ccccc1CNCCc1cccc(Cl)c1 | inactive: -21.8% | 
32 | Cc1ccc(C2NC(=S)NC(c3ccc(C)cc3)C23C(=O)NC(=O)NC3=O)cc1 (stereo not drawn) |  | inconclusive: 35.5 µM [inhibitor, partial curve, poor fit]
33 | O=C(CNC(=O)c1cccc(Cl)c1)Nc1ccc(Br)cc1C(=O)c1ccccc1 |  | inconclusive: 126 µM [inhibitor, partial curve, poor fit]
34 | CCCCn1c(O)c(C(CC)=Nc2cccc(C(=O)O)c2)c(=O)[nH]c1=O |  | inconclusive: 39.8 µM [inhibitor, partial curve, poor fit]
35 | COc1cc(OC)c(OC)cc1CN1CCN(C(=O)Cc2ccccc2)CC1 |  | inconclusive: 1.58 µM [inhibitor, full curve, poor fit]
36 | Cn1cc(C=C2C(=O)NC(=O)NC2=O)c2ccccc21 | inactive: 0% | 
37 | COCCCn1c(-c2ccc(OC)cc2)cc(C(=O)NC2CCCCCCC2)c1C | inactive: -7.21% | 
38 | CC[C@H]1CN2CC[C@H]1C[C@@H]2CNC(=O)Nc1ccc(C(C)=O)cc1 | inactive: -6.5% [at 176 µM] | 
39 | Cc1noc(C)c1COc1ccc(C(=O)NCC2(N(C)C)CCCCC2)cc1 | inactive: 11% | 
40 | CCC(CC)NC1CC1 |  | inconclusive: 20 µM [inhibitor, partial curve, poor fit]
41 | CN(C)c1ccc(C=C2C(=O)NC(=O)NC2=O)cc1[N+](=O)[O-] |  | inconclusive: 50.1 µM [inhibitor, partial curve, poor fit]
42 | CC/C(=N\NC(=O)Nc1ccccc1)c1c(O)n(Cc2ccccc2)c(=O)[nH]c1=O |  | inconclusive: 3.55 µM [inhibitor, full curve, poor fit]
43 | c1ccc2sc(C3(N4CCCCC4)CCCCC3)cc2c1 |  | inactive and inconclusive: 14.1 µM [inhibitor, partial curve, poor fit]
